Measured values as given in article PMC7862700.
The entries are a selection whose mix differs from that of the whole data set. At the low end of the ranking the order means little.

What was measured:
Assay in all cases: DAPPL (digital affinity profiling via proximity ligation, sequencing)
Settings in all cases: 10 mM Tris-HCl pH 7.5, 50 mM NaCl, 1 mM DTT, 4% glycerol, room temperature, 30 min; GST-TFs on glutathione beads, 16-mer random dsDNA library, 0.1% …; high values mean tight binding; double strand, one strand shown; scale: fold enrichment (6-mer frequency, TF over GST control)
ELK1 = biological target: T1, ELK1 (UniProt P19419)
T1 sequence: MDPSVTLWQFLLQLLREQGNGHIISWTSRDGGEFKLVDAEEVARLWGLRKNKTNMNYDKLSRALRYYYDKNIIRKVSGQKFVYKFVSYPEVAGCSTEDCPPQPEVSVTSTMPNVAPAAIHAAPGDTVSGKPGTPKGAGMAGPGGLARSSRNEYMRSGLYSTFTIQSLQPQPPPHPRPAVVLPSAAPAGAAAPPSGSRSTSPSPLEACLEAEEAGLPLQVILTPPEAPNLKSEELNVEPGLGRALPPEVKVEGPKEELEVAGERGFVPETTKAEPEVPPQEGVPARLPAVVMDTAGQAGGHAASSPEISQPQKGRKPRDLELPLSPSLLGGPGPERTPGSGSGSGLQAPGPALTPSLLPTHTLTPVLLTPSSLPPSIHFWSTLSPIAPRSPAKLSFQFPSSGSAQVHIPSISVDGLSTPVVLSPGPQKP

ELK3 = biological target: T2, ELK3 (UniProt P41970)
T2 sequence: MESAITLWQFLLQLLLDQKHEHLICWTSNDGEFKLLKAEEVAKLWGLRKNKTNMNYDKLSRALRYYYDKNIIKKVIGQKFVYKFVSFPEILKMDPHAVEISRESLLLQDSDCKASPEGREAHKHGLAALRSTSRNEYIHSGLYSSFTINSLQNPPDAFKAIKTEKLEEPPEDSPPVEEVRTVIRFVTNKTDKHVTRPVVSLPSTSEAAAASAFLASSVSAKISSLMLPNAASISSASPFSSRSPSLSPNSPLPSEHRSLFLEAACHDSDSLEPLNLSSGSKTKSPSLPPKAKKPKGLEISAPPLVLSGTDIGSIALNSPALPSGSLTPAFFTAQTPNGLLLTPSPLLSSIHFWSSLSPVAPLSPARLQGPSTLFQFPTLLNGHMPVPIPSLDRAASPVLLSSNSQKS

SPIC = biological target: T3, SPIC (UniProt Q8N5J4)
T3 sequence: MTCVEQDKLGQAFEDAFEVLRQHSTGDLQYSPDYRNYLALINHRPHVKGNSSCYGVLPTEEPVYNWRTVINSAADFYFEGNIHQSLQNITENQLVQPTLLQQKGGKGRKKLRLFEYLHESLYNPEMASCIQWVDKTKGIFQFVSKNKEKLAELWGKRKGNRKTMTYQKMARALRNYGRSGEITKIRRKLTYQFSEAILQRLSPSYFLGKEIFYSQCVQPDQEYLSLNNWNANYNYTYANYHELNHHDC

ETS2 = biological target: T4, ETS2 (UniProt P15036)
T4 sequence: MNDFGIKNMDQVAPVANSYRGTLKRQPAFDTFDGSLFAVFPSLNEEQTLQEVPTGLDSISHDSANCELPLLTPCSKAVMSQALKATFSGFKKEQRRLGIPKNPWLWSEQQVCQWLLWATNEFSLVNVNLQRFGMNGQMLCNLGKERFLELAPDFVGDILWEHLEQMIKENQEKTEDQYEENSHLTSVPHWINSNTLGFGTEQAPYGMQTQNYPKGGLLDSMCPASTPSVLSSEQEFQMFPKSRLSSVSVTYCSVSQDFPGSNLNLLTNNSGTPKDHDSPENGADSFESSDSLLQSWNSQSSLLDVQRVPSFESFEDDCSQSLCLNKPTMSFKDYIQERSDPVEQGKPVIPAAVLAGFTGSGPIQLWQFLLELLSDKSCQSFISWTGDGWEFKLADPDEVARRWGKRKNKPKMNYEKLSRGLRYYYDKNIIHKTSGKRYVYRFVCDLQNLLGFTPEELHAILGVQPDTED

ETV3 = biological target: T5, ETV3 (UniProt P41162-2)
T5 sequence: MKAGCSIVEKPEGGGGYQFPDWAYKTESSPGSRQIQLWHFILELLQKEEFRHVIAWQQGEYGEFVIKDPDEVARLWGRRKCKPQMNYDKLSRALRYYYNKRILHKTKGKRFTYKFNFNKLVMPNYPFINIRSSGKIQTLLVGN

| Sequence | binding signal (ELK1) | binding signal (ELK3) | binding signal (SPIC) | binding signal (ETS2) | binding signal (ETV3) |
| --- | --- | --- | --- | --- | --- |
| GGCGAA | 0.747 | 0.71 | 0.757 | 0.788 | 0.62 |
| GGGAAT | 0.809 | 0.784 | 0.856 | 0.784 | 0.761 |
| CGGTGA | 0.443 | 0.435 | 0.434 | 0.471 | 0.463 |
| CGGGTA | 0.72 | 0.793 | 0.666 | 0.852 | 0.871 |
| GGTGGA | 0.626 | 0.583 | 0.677 | 0.609 | 0.565 |
| CAGTTT | 0.924 | 1.04 | 0.897 | 0.871 | 0.973 |
| TCGGCG | 0.506 | 0.562 | 0.635 | 0.469 | 0.531 |
| GACGAT | 0.853 | 0.951 | 0.917 | 0.928 | 0.841 |
| GGGGTA | 0.711 | 0.753 | 0.729 | 0.77 | 0.694 |
| GTGTGC | 0.952 | 0.891 | 0.97 | 0.873 | 0.828 |
| GGACGT | 0.575 | 0.637 | 0.581 | 0.61 | 0.615 |
| GAGGAA | 0.764 | 0.766 | 0.918 | 0.843 | 0.818 |
| TTGTCG | 0.842 | 0.801 | 0.84 | 0.81 | 0.798 |
| TGGGGA | 0.841 | 0.718 | 0.915 | 0.79 | 0.785 |
| ATCGGT | 0.694 | 0.684 | 0.729 | 0.628 | 0.665 |
| AGGTTG | 0.78 | 0.747 | 0.856 | 0.799 | 0.803 |
| GGCGCA | 0.598 | 0.602 | 0.623 | 0.563 | 0.578 |
| GCAAGA | 0.795 | 0.775 | 0.912 | 0.808 | 0.79 |
| GCGCCA | 0.707 | 0.76 | 0.781 | 0.761 | 0.709 |
| AGGGAC | 0.841 | 0.687 | 0.746 | 0.806 | 0.74 |

Just binding signal (SPIC), binding signal (ETS2) and binding signal (ELK1), for some of the entries so far:
Sequence	binding signal (SPIC)	binding signal (ETS2)	binding signal (ELK1)
GGCGAA	0.757	0.788	0.747
GGGAAT	0.856	0.784	0.809
